Data taken from patent publication US20240398801A1, “TREATMENT OF LEUKEMIA BASED ON LEUKEMIA HIERARCHY IN A PATIENT” (UNIVERSITY HEALTH NETWORK, priority 2021, published 2024).
“Also recorded” adds a separate entry of the source. For at least one compound, name, drawing or mass did not settle the structure. Some compounds share one wording; it may come from a single statement.

How the values were obtained:
primary AML samples = experiment: Association of LinClass-7 / LSC17 score with ex vivo drug sensitivity in primary AML drug screens; format: cell-based, human; settings: for blasts targeted, from correlation of LinClass-7 score with drug sensitivity: drug screens of Tyner et al and Lee et al
Description: Ex vivo drug response in BEAT-AML samples was measured through the Area Under the dose-response Curve (AUC) metric, wherein a low AUC corresponds to sensitivity while a high AUC corresponds to resistance. AUC values were scaled and multiplied by −1 to represent sensitivity in each treatment condition. Pearson correlation was used to measure association between cell type abundance and drug sensitivities, following recommendations from a benchmarking study by Smirnov et al^97. Associations were depicted using the R package “corrplot”, and drug sensitivity volcano plots were generated using the R package “EnhancedVolcano”. For associations of cell type abundance with clinical and biological features, absolute cell type abundance was always used and pearson correlations were calculated unless otherwise specified.
To derive the LinClass-7 score, logCPM-normalized expression of 16 genes from the LSC17 assay were used as input features for LASSO regression: DNMT3B, GPR56, NGFRAP1, CD34, DPYSL3, SOCS2, MMRN1, KIAA0125, EMP1, NYNRIN, LAPTM4B, CDK6, AKR1C3, ZBTB46, CPXM1, ARHGAP22. The 17th gene, C19orf77, was excluded due to lack of expression data in the Leucegene cohort. LASSO regression was performed on negative PC2 (high in Primitive and low in Mature) with leave-one-out cross validation using the LassoCV function from scikit-learn with a path length of 0.1. Patients from TCGA and Leucegene were combined into a training set, and patients from BEAT-AML were used as a validation set to evaluate the strength of the association between LinClass-7 and PC2.

AML engraftment = experiment: Patient-derived xenograft (PDX) response of AML patient samples to fedratinib, CC-90009 or their combination; format: in vivo, NOD.SCID mice
Description: Using normalized malignant cell type composition data for 46 patient samples used for in vivo fedratinib or CC-90009 treatment, dimensionality reduction was performed and clustering was assigned using the leiden algorithm with a resolution of 0.7, yielding three clusters: Primitive, Mature, Intermediate/GMP. […] Samples were subsequently projected on the reference map for visualization and confirmation of cluster assignments.
Patient samples were classified into response categories by comparing the relative reduction (RR) of AML engraftment in drug-treated mice versus vehicle-treated mice, as per Galkin et al 98. RR was calculated as: ((mean % engraftment in control mice)−(mean % engraftment in drug treated mice))/(mean % engraftment in control mice). […]
NOD.SCID mice were bred and housed in the University Health Network (UHN) animal care facility and all animal experiments were performed in accordance with guidelines approved by the UHN animal care committee. […] Viably frozen mononucleated cells from AML patients were thawed, counted, and intrafemorally injected at the dose of 5 million cells per mouse. […] Following treatment, levels of AML engraftment were assessed to determine the efficacy of drug treatment against the disease in the mice. […]

Structure (SMILES)	blasts targeted, from correlation of LinClass-7 score with drug sensitivity (primary AML samples)	difference in ex vivo sensitivity between patient samples with high and low score (primary AML samples; split by LSC17)	difference in ex vivo sensitivity between patient samples with high and low score (primary AML samples; split by LinClass-7)	response among Primitive AMLs (AML engraftment; Primitive AMLs lacking NPM1c mutation and ETC signatures)	response among Primitive AMLs (AML engraftment; Primitive AMLs with NPM1c mutations and electron transport chain signatures)
Nc1ncn([C@@H]2O[C@H](CO)[C@@H](O)[C@H]2O)c(=O)n1 [Azacytidine]	primitive blasts; also recorded: primitive AMLs	no significant difference	stark differences	–	–
Cc1cnc(Nc2ccc(OCCN3CCCC3)cc2)nc1Nc1cccc(S(=O)(=O)NC(C)(C)C)c1 [fedratinib]	–	–	–	poor response	favorable response
CC1(C)CCC(CN2CCN(c3ccc(C(=O)NS(=O)(=O)c4ccc(NCC5CCOCC5)c([N+](=O)[O-])c4)c(Oc4cnc5[nH]ccc5c4)c3)CC2)=C(c2ccc(Cl)cc2)C1 [Venetoclax]	primitive blasts; also recorded: primitive AMLs	no significant difference	stark differences	–	–
CC(=O)c1c(C)c2cnc(Nc3ccc(N4CCNCC4)cn3)nc2n(C2CCCC2)c1=O [Palbociclib]	primitive blasts	–	–	–	–
